Measurements from PubChem BioAssay AID651640 (Broad Institute, 2012).
Hit rate of the full screen: of about 350,000 compounds, about 6,000 (1.7%) were called active. The shares of active, inactive and inconclusive entries below differ from those in the screen. Cut-off read from the data, not from the text of the source: active = CPE inhibition above about 20% (passing the limit was not always enough); inconclusive = no clear call, values can overlap the other calls; tested in BHK-21 cells.

Test: protection of cells from dengue 2 killing – plate reader, single concentration, primary screen (AID 651640);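 note: 0% = median of neutral control wells and 100% = median of positive control wells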
Details: DENV2-infected cells, cytopathic effect rescue, at 9.99 µM, hits give high values

Compound | CPE inhibition
O=[N+]([O-])c1cccc(S(=O)(=O)Nc2cccc(-c3ccc(N4CCCC4)nn3)c2)c1 | inconclusive: 29.3%
COc1ccc(CC2C(=O)NC(C)C(=O)N(C)C3Cc4ccc(cc4)Oc4cc(ccc4O)CC(C(=O)NC(C)C(=O)NC(C)C(=O)N2C)N(C)C3=O)cc1 (centres undefined) | inconclusive: 21.6%
C[C@H](CO)N1C[C@H](C)[C@H](CN(C)Cc2ccc(Oc3ccccc3)cc2)Oc2ccc(NS(=O)(=O)c3ccccc3)cc2CC1=O | inconclusive: 31.2%
COc1c(C)cc(C(O)c2ncc(-c3ccccc3C)[nH]2)cc1C (centres undefined) | inconclusive: 32.2%
COc1ccc(S(=O)(=O)N[C@H]2CC[C@@H](CC(=O)NCc3ccccc3F)O[C@H]2CO)cc1 | active: 59%
Cc1ccc(S(=O)(=O)N2CCCOC2CNC(=O)C(=O)NCc2ccc3c(c2)OCO3)cc1 (centres undefined) | inactive: 4.81%
COC(=O)C1=NN(C(C)=O)C2(CC(=O)N(c3cc(C)cc(C)c3)C2=O)C1 (centres undefined) | inconclusive: 21.5%
O=C(CNC(=O)c1cn2ccccc2n1)Nc1ccc(F)c(F)c1 | inconclusive: 35.6%
CO[C@H]1CN(C)C(=O)c2ccc(NC(=O)Nc3cccc(F)c3)cc2OC[C@H](C)N(C(=O)C2CC2)C[C@@H]1C | inactive: 8.49%
CC1(C)OC1(C#N)c1ccccc1 (centres undefined) | inactive: -15.4%
CC1(C)CCc2cc(S(=O)(=O)N3CCN(S(=O)(=O)c4c(F)cccc4F)CC3)ccc2O1 | inconclusive: 43.2%
COc1cccc(-c2ccc(C3[C@H]4CNC[C@@H]3N4Cc3cccnc3)cc2)c1 (some centres undefined) | active: 28.2%
C[C@@H]1CCCCO[C@@H](CN(C)Cc2ccncc2)[C@H](C)CN([C@@H](C)CO)C(=O)c2cc(NS(=O)(=O)c3ccc(Cl)cc3)ccc2O1 | active: 60.1%
Cc1noc(C)c1S(=O)(=O)Nc1ccc2c(c1)C(=O)N([C@H](C)CO)C[C@@H](C)[C@H](CN(C)S(=O)(=O)c1ccccc1)OCCCC[C@@H](C)O2 | inactive: -9.72%
S=c1cnc2ccccc2[nH]1 | inconclusive: 30.8%
CC(C)NC(=O)Nc1ccc2c(c1)C(=O)N([C@@H](C)CO)C[C@@H](C)[C@@H](CN(C)S(=O)(=O)c1cccs1)OCCCC[C@@H](C)O2 | inactive: -1.89%
O=C(COC(=O)c1ccc(CO)cc1)c1ccc(S(=O)(=O)N2CCCCC2)cc1 | inconclusive: 51.6%
O=C(COc1cccnc1[N+](=O)[O-])Nc1ccccc1Sc1ccccc1 | active: 32.5%
COc1ccc(CCN2C(=O)CSCC2(C)C(=O)Nc2ccc3c(c2)OCCO3)cc1OC (centres undefined) | active: 20.6%

Random excerpt: 2 compounds from above, in no set order.
Compound | CPE inhibition
Cc1noc(C)c1S(=O)(=O)Nc1ccc2c(c1)C(=O)N([C@H](C)CO)C[C@@H](C)[C@H](CN(C)S(=O)(=O)c1ccccc1)OCCCC[C@@H](C)O2 | inactive: -9.72%
COc1ccc(CCN2C(=O)CSCC2(C)C(=O)Nc2ccc3c(c2)OCCO3)cc1OC (centres undefined) | active: 20.6%
